Substitutions are numbered along the chain they refer to. Where two headings read alike, the source gives them in different places. No constants are given. Whether binding was seen depends on the method and setting. In cells and extracts the contact can be indirect. Here binding means that the protein was enriched with, or labelled near, the bait; the list need not be complete. For part of these data: No binding means not detected with the bait. Where a sequence is shown, tags or fusion partners need not be part of it.
B1: adapter protein BANK1 (protein, UniProt Q8NDB2 1-785)
chain: MLPAAPGKGLGSPDPAPCGPAPPGNTKDIIMIYEEDAEEWALYLTEVFLHVVKREAILLYRLENFSFRHLELLNLTSYKCKLLILSNSLLRDLTPKKCQFLEKILHSPKSVVTLLCGVKSSDQLYELLNISQSRWEISTEQEPEDYISVIQSIIFKDSEDYFEVNIPTDLRAKHSGEISERKEIEELSEASRNTIPLAVVLPTEIPCENPGEIFIILRDEVIGDTVEVEFTSSNKRIRTRPALWNKKVWCMKALEFPAGSVHVNVYCDGIVKATTKIKYYPTAKAKECLFRMADSGESLCQNSIEELDGVLTSIFKHEIPYYEFQSLQTEICSQNKYTHFKELPTLLHCAAKFGLKNLAIHLLQCSGATWASKMKNMEGSDPAHIAERHGHKELKKIFEDFSIQEIDINNEQENDYEEDIASFSTYIPSTQNPAFHHESRKTYGQSADGAEANEMEGEGKQNGSGMETKHSPLEVGSESSEDQYDDLYVFIPGADPENNSQEPLMSSRPPLPPPRPVANAFQLERPHFTLPGTMVEGQMERSQNWGHPGVRQETGDEPKGEKEKKEEEKEQEEEEDPYTFAEIDDSEYDMILANLSIKKKTGSRSFIINRPPAPTPRPTSIPPKEETTPYIAQVFQQKTARRQSDDDKFCGLPKKQDRARIESPAFSTLRGCLTDGQEELILLQEKVKNGKMSMDEALEKFKHWQMGKSGLEMIQQEKLRQLRDCIIGKRPEEENVYNKLTIVHHPGGKETAHNENKFYNVHFSNKLPARPQVEKEFGFCCKKDH

Chains of the proteins cited; added tags and fusions are not shown.
UniProt Q8IXQ5: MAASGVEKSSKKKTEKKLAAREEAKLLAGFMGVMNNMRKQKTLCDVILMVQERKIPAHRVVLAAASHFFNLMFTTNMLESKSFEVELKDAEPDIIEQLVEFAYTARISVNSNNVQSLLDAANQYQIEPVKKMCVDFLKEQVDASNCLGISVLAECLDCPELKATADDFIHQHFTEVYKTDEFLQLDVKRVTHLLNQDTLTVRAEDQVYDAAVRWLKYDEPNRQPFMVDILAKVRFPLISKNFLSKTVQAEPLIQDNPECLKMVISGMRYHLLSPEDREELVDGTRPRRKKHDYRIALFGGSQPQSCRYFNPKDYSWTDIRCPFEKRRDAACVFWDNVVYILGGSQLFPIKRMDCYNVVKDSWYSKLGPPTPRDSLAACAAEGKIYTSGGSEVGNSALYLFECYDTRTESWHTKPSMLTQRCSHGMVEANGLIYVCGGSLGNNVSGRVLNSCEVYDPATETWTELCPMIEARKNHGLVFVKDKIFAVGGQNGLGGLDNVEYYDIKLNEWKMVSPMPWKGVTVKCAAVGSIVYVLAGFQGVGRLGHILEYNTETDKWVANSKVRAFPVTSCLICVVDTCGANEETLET

Tests used:
[1] = biological target: T1, KLHL6 E568K, C-terminal Strep-HA tag (human) (UniProt Q8WZ60); assay: affinity purification with mass spectrometry; C-terminally Strep-HA-tagged KLHL6 baits stably expressed in SuDHL5; lysis in 0.5% IGEPAL, 50 mmol/L HEPES pH 8.0, 150 mmol/L NaCl, 5 mmol/L EDTA; one-step purification on Strep-Tactin Sepharose; EmGFP controls; SAINT and DESeq2; also done 60 seconds after BCR cross-linking with anti-human IgM F(ab')2 or control goat IgG
T1 sequence: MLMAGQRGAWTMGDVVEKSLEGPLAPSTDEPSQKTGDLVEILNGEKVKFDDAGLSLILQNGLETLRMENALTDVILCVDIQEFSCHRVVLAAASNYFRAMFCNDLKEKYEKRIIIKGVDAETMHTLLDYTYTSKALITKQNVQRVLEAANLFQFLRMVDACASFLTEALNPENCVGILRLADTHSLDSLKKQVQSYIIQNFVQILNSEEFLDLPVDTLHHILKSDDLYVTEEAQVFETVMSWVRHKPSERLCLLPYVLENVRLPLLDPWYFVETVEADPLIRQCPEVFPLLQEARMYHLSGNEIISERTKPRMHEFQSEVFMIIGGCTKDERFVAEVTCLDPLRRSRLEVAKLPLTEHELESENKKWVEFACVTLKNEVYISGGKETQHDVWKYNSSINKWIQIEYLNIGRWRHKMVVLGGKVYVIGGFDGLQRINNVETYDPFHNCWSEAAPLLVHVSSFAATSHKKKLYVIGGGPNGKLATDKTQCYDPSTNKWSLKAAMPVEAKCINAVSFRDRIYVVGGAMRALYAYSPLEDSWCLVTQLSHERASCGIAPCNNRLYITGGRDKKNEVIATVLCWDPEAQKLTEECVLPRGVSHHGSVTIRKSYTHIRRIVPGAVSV

[2] = biological target: T2, KLHL6 wild type, C-terminal Strep-HA tag (KLHL6-strHA) (human) (UniProt Q8WZ60); assay: as above
T2 sequence: T1 sequence with K568E

[3] = biological target: T3, KLHL6 L65P, C-terminal Strep-HA tag (human) (UniProt Q8WZ60); assay: as above
T3 sequence: T1 sequence with L65P, K568E

[4] = biological target: T4, KLHL6 L90F, C-terminal Strep-HA tag (human) (UniProt Q8WZ60); assay: as above
T4 sequence: T1 sequence with L90F, K568E

[5] = biological target: T5, KLHL6 wild type fused to C-terminal BioID2 (human) (UniProt Q8WZ60); assay: proximity labelling; KLHL6-BioID2 interactome in the ABC cell line U2932; mass spectrometry
T5 sequence: T1 sequence with K568E

[6] = biological target: T5, KLHL6 wild type fused to C-terminal BioID2 (human); assay: proximity labelling; KLHL6 baits with C-terminal BioID2 stably expressed in SuDHL5, no added biotin; lysis with 0.1% SDS; biotinylated proteins purified on Strep-Tactin Sepharose; mass spectrometry; BioID2-tagged EmGFP controls
[7] = biological target: T1, KLHL6 E568K, C-terminal Strep-HA tag (human); assay: affinity purification with mass spectrometry; C-terminally Strep-HA-tagged KLHL6 baits stably expressed in SuDHL5; lysis in 0.5% IGEPAL, 50 mmol/L HEPES pH 8.0, 150 mmol/L NaCl, 5 mmol/L EDTA; one-step purification on Strep-Tactin Sepharose; EmGFP controls; SAINT and DESeq2; also done 60 seconds after BCR cross-linking with anti-human IgM F(ab')2 or control goat IgG; remark: listed apart in the source
[8] = biological target: T2, KLHL6 wild type, C-terminal Strep-HA tag (KLHL6-strHA) (human); assay: as above; remark: listed apart in the source
[9] = biological target: T4, KLHL6 L90F, C-terminal Strep-HA tag (human); assay: as above; remark: listed apart in the source

Molecule	binding [1]	binding [2]	binding [3]	binding [4]	binding [5]	binding [6]	binding [7]	binding [8]	binding [9]
KLHL7 (from UniProt Q8IXQ5 1-586)	binds	binds	no binding	no binding	–	–	–	–	–
B1	–	–	–	–	binds	binds	binds	binds	binds

Reference: paper PMC11369598
